Laboratory results as given in article PMC7819943, “Rice protein-binding microarrays: a tool to detect cis-acting elements near promoter regions in rice”.
This is one part of the list.

Chains of the proteins cited; added tags and fusions are not shown.
UniProt Q0JBA9, entry or part of it: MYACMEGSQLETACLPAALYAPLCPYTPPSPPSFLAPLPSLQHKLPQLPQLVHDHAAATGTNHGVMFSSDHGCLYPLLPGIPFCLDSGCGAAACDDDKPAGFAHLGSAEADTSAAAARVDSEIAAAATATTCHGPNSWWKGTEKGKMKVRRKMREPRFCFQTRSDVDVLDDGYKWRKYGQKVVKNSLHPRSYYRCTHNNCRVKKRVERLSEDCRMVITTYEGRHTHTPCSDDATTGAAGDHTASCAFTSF

What follows are sequences tested against OsWRKY34 (Oryza sativa, UniProt Q0JBA9 1-250) (assay: protein-binding microarray (RPBM); PBS, 2% BSA, 51.3 ng/ul salmon testes DNA, 50 uM zinc acetate, 200 nM TF, 25 C, 1 h; high values mean tight binding). Conditions: protein: recombinant; tags: N-terminal polyhistidine and DsRed monomer fusion (pET32a); label: CyDye5-dUTP incorporated in the synthesized complementary strand; 3' TTTTT single-stranded linker to array surface; dsDNA, one strand shown.
In short: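 Transcription factors, each fused N-terminally to a polyhistidine tag and DsRed, were expressed in E. coli BL21-CodonPlus and purified on Ni–NTA. A custom Agilent array was made double-stranded by primer extension with Cy5-dUTP and blocked with 2% BSA. It was incubated with 200 nM protein in PBS, 2% BSA, salmon testes DNA and 50 µM zinc acetate at 25 °C for 1 h, then washed. The binding signal is per-feature fluorescence intensity (arbitrary units) read on an Axon 4000B scanner.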

Sequence	binding signal
CAAGCTGAACTTCCTACTGCTCTTTCCAAATTTCAAGTTCCGGAGTCACCTAGTGCAG	8040 fluorescence intensity (a.u.)
CGTCGTCGTCGTCTTCTTCTTCAATACTATATACATATAACGGAGTCACCTAGTGCAG	8170 fluorescence intensity (a.u.)
CGAAAGCCCAGCCCACTCGGCTAAACCCCAACACGCACACCGGAGTCACCTAGTGCAG	9460 fluorescence intensity (a.u.)
CTCTCGTCCTGTCTTTGCTAGCTATCCAAATATCGCTATACGGAGTCACCTAGTGCAG	10800 fluorescence intensity (a.u.)
GCTTTCCTCTACTTCAATTTGCTAGTACCAGGCTAGTTTCCGGAGTCACCTAGTGCAG	11400 fluorescence intensity (a.u.)
AATAATTTACCCGCACGCAAGCCTGCACGCGAACGTTCGCCGGAGTCACCTAGTGCAG	8790 fluorescence intensity (a.u.)
CACCTCGGACTAATCGATCCCATTTAAATCGCCATCACTCCGGAGTCACCTAGTGCAG	9470 fluorescence intensity (a.u.)
TCCCCTAGACTCCTGTCCGCTCAAAACAATTTCCTCCAACCGGAGTCACCTAGTGCAG	8380 fluorescence intensity (a.u.)
ATTTGATACAATAATGGGGACTACTAGTGTTTGTTTTTTACGGAGTCACCTAGTGCAG	9980 fluorescence intensity (a.u.)
GACTAGTTACTACTTACTCTCTCTTGTTCTAACTACTCTACGGAGTCACCTAGTGCAG	8120 fluorescence intensity (a.u.)
CGGTCAACAAGTAAACGCACGCCCATTCGCTTCTTCACCACGGAGTCACCTAGTGCAG	9100 fluorescence intensity (a.u.)
TGTTGTCTTTGTGTCGTTGTTGCGGCCACCGTCATTGTGCCGGAGTCACCTAGTGCAG	11400 fluorescence intensity (a.u.)
GGATCACATTATCTCATACTTGGTCACACAGAAAATTAAACGGAGTCACCTAGTGCAG	8210 fluorescence intensity (a.u.)
AATATAAGGGATTTTAACTTTTTATTTGCACTGTTTGACCCGGAGTCACCTAGTGCAG	8130 fluorescence intensity (a.u.)
CAATACTTTGAAAACAAATAATTGCTGTATGCGTCCATCTCGGAGTCACCTAGTGCAG	8420 fluorescence intensity (a.u.)
TCCTCTATCCCTTCATACTGATCGTGTTCCCTGGTTGAATCGGAGTCACCTAGTGCAG	8060 fluorescence intensity (a.u.)
CAGTTATCCTTTCACTGTGCGCCAAACATATCTCAGCTGTCGGAGTCACCTAGTGCAG	10300 fluorescence intensity (a.u.)
TGTCATCTGAATTCAACATGTTATACCACACATTGGATCGCGGAGTCACCTAGTGCAG	10500 fluorescence intensity (a.u.)
TTTTCCCGTGCGGGCGACGACCTAGCGCCGGTCCTCCTATCGGAGTCACCTAGTGCAG	8020 fluorescence intensity (a.u.)
GGAAGACAATTTTACCATAATTTGGGTGGAGGGGTGTTGGCGGAGTCACCTAGTGCAG	8790 fluorescence intensity (a.u.)
AACTTCTCTAGCTTTGTCACCCAAGCGCTCAATTTTTTTACGGAGTCACCTAGTGCAG	8480 fluorescence intensity (a.u.)

Sequence	binding signal
TTCATGTCAGAATCCTATGTTTTTCCTATTCCTTTGTTTTCGGAGTCACCTAGTGCAG	11000 fluorescence intensity (a.u.)
TTACATGTTCTTTTATCTTAACTGTTAACACTATCATGCTCGGAGTCACCTAGTGCAG	8110 fluorescence intensity (a.u.)
CTCACTTGTCTTGTTTCTCTTAAATCCAACTCAGCACAAACGGAGTCACCTAGTGCAG	8180 fluorescence intensity (a.u.)
TGGAGGTCGTGGCCTATTTCCGTCGGTTGTTTGTCAAAAACGGAGTCACCTAGTGCAG	9070 fluorescence intensity (a.u.)
TTTCGGTCTTTTTTTTGTCCTTTGTTTAGTTTCAGCTTGGCGGAGTCACCTAGTGCAG	12400 fluorescence intensity (a.u.)
TGTGCGGAGTTGCGGGGTGGTTCACGGCGGGTTCGCTATGCGGAGTCACCTAGTGCAG	8380 fluorescence intensity (a.u.)
ACTACACCCTCACCTTCACTGGCCACTCCCTCGGCGCCGGCGGAGTCACCTAGTGCAG	9740 fluorescence intensity (a.u.)
CCTAGGTCTCTTGTGCAAATTTCTCGCCGCTTGACTAAATCGGAGTCACCTAGTGCAG	9950 fluorescence intensity (a.u.)
TGTTGACTTTTTTTATTAACGTTTAGCATTTATCTTATTTCGGAGTCACCTAGTGCAG	18000 fluorescence intensity (a.u.)
CGCTTGTTCTCTTACCATTTTTTTCTGTAATTTATTTTTGCGGAGTCACCTAGTGCAG	8200 fluorescence intensity (a.u.)
AAAGTTGGGGTCAGGTGGTTTTGGTTCTGTGTTCAAGGGACGGAGTCACCTAGTGCAG	11500 fluorescence intensity (a.u.)
TTCGCCTCCACCTTCATCTGCTCCACCTGCGTCACAGTCACGGAGTCACCTAGTGCAG	11900 fluorescence intensity (a.u.)
AAATCTCTTCTACAACTACTACCACCACCTCACCTGCCTTCGGAGTCACCTAGTGCAG	10600 fluorescence intensity (a.u.)
TGACTCTTCTACACCTTCCAGGCTATCCGGAATCGGGAGGCGGAGTCACCTAGTGCAG	8300 fluorescence intensity (a.u.)
ACACCGCCGCCGTGCGCCTCGCCTCGCCGTCGACCGCGCCCGGAGTCACCTAGTGCAG	8590 fluorescence intensity (a.u.)
ACACGTGCTATATACTCCCTCGATGTCTCTGTCCCAAAATCGGAGTCACCTAGTGCAG	9360 fluorescence intensity (a.u.)
TGGTCCAATATTCACAGTATCCTCTCTTTCCATACTATCCCGGAGTCACCTAGTGCAG	8430 fluorescence intensity (a.u.)
TTTCCTGTGCTGGAGCTCGACGATTGCATTGGCGCCCGCTCGGAGTCACCTAGTGCAG	8390 fluorescence intensity (a.u.)
GCTTACGGGCCAGGCCTTTCTCTAACCTGATAACTAGTATCGGAGTCACCTAGTGCAG	8750 fluorescence intensity (a.u.)
AAATGCCTTTTTATGTTGTGGAATTATGATCTGATAAAGGCGGAGTCACCTAGTGCAG	8910 fluorescence intensity (a.u.)
GTGCGGGTATCATTTGTTTTCTTTTTTATTTCTAGCTTGACGGAGTCACCTAGTGCAG	9230 fluorescence intensity (a.u.)

Sequence	binding signal
TGCCGCTATCCTCTCGGTCGTATCCCGTTTCTCTGTCTTTCGGAGTCACCTAGTGCAG	16100 fluorescence intensity (a.u.)
TATTTTTATTATTATATATACTTCCGTCATTCCATATTGACGGAGTCACCTAGTGCAG	9790 fluorescence intensity (a.u.)
ACCAACCAACCACTGCTCTCGCCGCGCCGTCCTCTTCATCCGGAGTCACCTAGTGCAG	18200 fluorescence intensity (a.u.)
CCCCATCCATTGCAACGGCAACATACACACACCACCACCACGGAGTCACCTAGTGCAG	8350 fluorescence intensity (a.u.)
TTACTCTAGCATTCCTCGTCCTGCCCTCTAAAAACAAAAGCGGAGTCACCTAGTGCAG	8710 fluorescence intensity (a.u.)
TCGATACCATTTTCAACCATACCATTTTTTACCAAAATTACGGAGTCACCTAGTGCAG	9200 fluorescence intensity (a.u.)
CATCTCTTATATTTTAGGATGGCAGGGGTAATAATTAGTTCGGAGTCACCTAGTGCAG	8730 fluorescence intensity (a.u.)
AATTAAGATTGGTATTCTTATGCTTACCATGTTATCTTTTCGGAGTCACCTAGTGCAG	9650 fluorescence intensity (a.u.)
GTTATATCTCATATTTGTTCTTTGGAACTCCTTCTTTACCCGGAGTCACCTAGTGCAG	8440 fluorescence intensity (a.u.)
GAAAGTACAAGACAACTACAAGTTCCCAGCTTTCTCTTCCCGGAGTCACCTAGTGCAG	8460 fluorescence intensity (a.u.)
CGCTCCGGCCGCCGTCGCCCCACTTCGCCCGCTGCCCTAGCGGAGTCACCTAGTGCAG	9940 fluorescence intensity (a.u.)
GGTTCTAGATTGATCTATTTGTCTTTTGATGTTGCCCTCACGGAGTCACCTAGTGCAG	12600 fluorescence intensity (a.u.)
ACTAGTGACCCTAATTTTCGGTTCGATATTTGAAATTTCCCGGAGTCACCTAGTGCAG	9030 fluorescence intensity (a.u.)
TTTTTTTATTAATTGATTTGTGGAATATTCGTTTGTTCTTCGGAGTCACCTAGTGCAG	8080 fluorescence intensity (a.u.)
TTTAATGCATGACTCTTCATTCTTCCACACATGATTGGCTCGGAGTCACCTAGTGCAG	11900 fluorescence intensity (a.u.)
ATATACTATTCTCATCTGTCATACACACATCACATCTTGACGGAGTCACCTAGTGCAG	10000 fluorescence intensity (a.u.)
CCCATTGCCTTCCTTCTTGCCCAATTCACTCCACCATACTCGGAGTCACCTAGTGCAG	10500 fluorescence intensity (a.u.)
CCGCTACGCTCGCCGCGCCGCCGCTACGCTCGCCGCGCCGCGGAGTCACCTAGTGCAG	8320 fluorescence intensity (a.u.)
ATCACGTCGCCTCGTTTCTTGCCTCGCCGCTCGTTGCTCGCGGAGTCACCTAGTGCAG	12200 fluorescence intensity (a.u.)
CTATTTACATTTCAACTTTGATCGTCCGCCGTTTTTAAGACGGAGTCACCTAGTGCAG	8390 fluorescence intensity (a.u.)
ACTTGGTTTAACGTATCATCCCGGTCCAAAGCCTCGTTTGCGGAGTCACCTAGTGCAG	8170 fluorescence intensity (a.u.)

Two entries from above, comma-delimited:
Sequence,binding signal
CCTAGGTCTCTTGTGCAAATTTCTCGCCGCTTGACTAAATCGGAGTCACCTAGTGCAG,9950 fluorescence intensity (a.u.)
AAATGCCTTTTTATGTTGTGGAATTATGATCTGATAAAGGCGGAGTCACCTAGTGCAG,8910 fluorescence intensity (a.u.)

(cont.)

Sequence	binding signal
CAATAATGATGGGGTGGTGGAGATGGTGGTGGGTTTGGTCCGGAGTCACCTAGTGCAG	11200 fluorescence intensity (a.u.)
AGATACATATATATTCCCATGGTTTTTTGCCCACCCAGCGCGGAGTCACCTAGTGCAG	8480 fluorescence intensity (a.u.)
GTTTTGTGAAATTTACTCTTTTTTTCTCTCTTGGTCCACGCGGAGTCACCTAGTGCAG	8190 fluorescence intensity (a.u.)
CGTTCTTCGATCCGTACTCTGCTCCGATCGCCATTTCCTGCGGAGTCACCTAGTGCAG	10100 fluorescence intensity (a.u.)
CAATTCCAGCCCGTCTCTTATCTCTCTCGTGTCTTCTTCACGGAGTCACCTAGTGCAG	8370 fluorescence intensity (a.u.)
GTTGTAGTTTCTTGAATCACCCTGCCCAGTTAGTGCTTATCGGAGTCACCTAGTGCAG	8250 fluorescence intensity (a.u.)
ACTCTATATCGTTCCACATCCGTCTATATGATATCTTTATCGGAGTCACCTAGTGCAG	9750 fluorescence intensity (a.u.)
TAGAACTCTGGTTGTCTTTCCTTATCCGGAACTCCTCATACGGAGTCACCTAGTGCAG	10200 fluorescence intensity (a.u.)
TATCACGATATTCTACCTCGCTCTCATGGGCTAGATCACCCGGAGTCACCTAGTGCAG	9500 fluorescence intensity (a.u.)
TAGCCTCAGACGTCTCATCCTTATCGCCTCGCCTCTCGATCGGAGTCACCTAGTGCAG	9530 fluorescence intensity (a.u.)
TGGTCCTGATTTATTTGGTACAAACATACTTCTACGTTACCGGAGTCACCTAGTGCAG	8320 fluorescence intensity (a.u.)
TCACAACTCAATTAACCATACACTAATTACTTTCGCATCCCGGAGTCACCTAGTGCAG	8110 fluorescence intensity (a.u.)
GTCGCGCCTGACGCCGCCGTTGCGCCTGCCACCGCCTGTCCGGAGTCACCTAGTGCAG	8220 fluorescence intensity (a.u.)
CCGCGCGCGGTCCACCTGGCTGATGCTCTTCCCGGCGTACCGGAGTCACCTAGTGCAG	8810 fluorescence intensity (a.u.)
AGGGAAGAGTGGATTCGGAGTACTCCATGCATATCGGCGCCGGAGTCACCTAGTGCAG	11500 fluorescence intensity (a.u.)
CCTCGTTTTGCGTATCTTTCCAATCTCCTCAATCCTCTTCCGGAGTCACCTAGTGCAG	8030 fluorescence intensity (a.u.)
GTGCTATCCCTATACCTATTATCGTGGTAATTTTTTTTTGCGGAGTCACCTAGTGCAG	10200 fluorescence intensity (a.u.)
ATATAAGGGATTTTGAGTTTTTGATTGCAACGTTTGACCACGGAGTCACCTAGTGCAG	8550 fluorescence intensity (a.u.)
TATGTTCTTCAGGATACTTGCTGTTTGTCACACTGCAATTCGGAGTCACCTAGTGCAG	9110 fluorescence intensity (a.u.)
CTCTTCACCATTCAACTCCTCCCATGCATATGTTTCACAACGGAGTCACCTAGTGCAG	8290 fluorescence intensity (a.u.)
CACTTTATTTAATCTTAATATATTTATCTCATGGTTTTATCGGAGTCACCTAGTGCAG	8810 fluorescence intensity (a.u.)

As entered above:
binding signal with GGTTCTAGATTGATCTATTTGTCTTTTGATGTTGCCCTCACGGAGTCACCTAGTGCAG reads 12600 fluorescence intensity (a.u.)
binding signal with AGGGAAGAGTGGATTCGGAGTACTCCATGCATATCGGCGCCGGAGTCACCTAGTGCAG reads 11500 fluorescence intensity (a.u.)
